According to PMC7819943, “Rice protein-binding microarrays: a tool to detect cis-acting elements near promoter regions in rice”:
This is one part of the list.

molecular target: T1, OsSMF1 (Oryza sativa, UniProt Q6ZLB0 1-436); assay: protein-binding microarray (RPBM); PBS, 2% BSA, 51.3 ng/ul salmon testes DNA, 50 uM zinc acetate, 200 nM TF, 25 C, 1 h; high values mean tight binding; details: protein: recombinant; tags: N-terminal polyhistidine and DsRed monomer fusion (pET32a); chain copies: 2; label: CyDye5-dUTP incorporated in the synthesized complementary strand; 3' TTTTT single-stranded linker to array surface; dsDNA, one strand shown
T1 sequence: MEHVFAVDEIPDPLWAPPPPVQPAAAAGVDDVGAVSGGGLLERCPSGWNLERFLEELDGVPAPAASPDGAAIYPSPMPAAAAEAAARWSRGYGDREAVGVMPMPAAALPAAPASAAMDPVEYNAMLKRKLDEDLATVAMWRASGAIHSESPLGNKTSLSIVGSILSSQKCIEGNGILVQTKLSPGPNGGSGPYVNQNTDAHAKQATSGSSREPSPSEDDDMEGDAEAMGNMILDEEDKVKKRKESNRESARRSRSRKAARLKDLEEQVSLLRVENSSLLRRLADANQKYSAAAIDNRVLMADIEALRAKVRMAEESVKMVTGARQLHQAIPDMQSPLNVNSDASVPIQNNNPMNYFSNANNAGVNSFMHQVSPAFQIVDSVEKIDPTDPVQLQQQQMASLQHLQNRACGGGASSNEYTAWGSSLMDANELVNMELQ
In short: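 For the binding signal, per-feature fluorescence intensity was read in arbitrary units on an Axon 4000B scanner. Before scanning, a 2% BSA-blocked custom Agilent array made double-stranded with Cy5-dUTP was washed after 1 h at 25 °C with 200 nM protein and 50 µM zinc acetate. The proteins were Ni–NTA-purified transcription factors with N-terminal polyhistidine and DsRed fusions, expressed in E. coli BL21-CodonPlus.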

Point of comparison: “AATCATCCGCCCCAGGCCCCAGCCACGTCGTCCAGATCGCCGGAGTCACCTAGTGCAG”, binding signal 6410 fluorescence intensity (a.u.). Against it:
- TTGATGGAGATGGGAGTTGGTGCGGATGTCCTTGTCGCCCCGGAGTCACCTAGTGCAG — lower, 3200 fluorescence intensity (a.u.)
- CGGAATTGCCCCAACCAAGGAGGAGACGGAGGGGAGGGCACGGAGTCACCTAGTGCAG — lower, 3290 fluorescence intensity (a.u.)
- AATTGTTTGGTTGGTAGAATGACGCCTCAATCCGCACCATCGGAGTCACCTAGTGCAG — lower, 3290 fluorescence intensity (a.u.)
- ATTGGGTCCAGTGGGTGAAGTGTACCAAGCCGAGGTGGGACGGAGTCACCTAGTGCAG — lower, 3490 fluorescence intensity (a.u.)
- TCTCCAGCTATTTGACCAGGTTATCTCTGAGCTCCACAGTCGGAGTCACCTAGTGCAG — lower, 4300 fluorescence intensity (a.u.)
- AGCTGTGCAGCAGCAAGGACGGCCCAGAGAGAGATAGCCACGGAGTCACCTAGTGCAG — lower, 3490 fluorescence intensity (a.u.)
- CCTCCAATCCACTGGTAGCACACGCACGTCCATTCTTCGTCGGAGTCACCTAGTGCAG — lower, 3690 fluorescence intensity (a.u.)
- ATTTTCTCTGCAAAACGTGTCACTCAATTGTACTTCTTCCCGGAGTCACCTAGTGCAG — higher, 8000 fluorescence intensity (a.u.)
- CCACCCAGGTCAGTGAACATTCCTTCCTCTTCACATGCATCGGAGTCACCTAGTGCAG — lower, 3300 fluorescence intensity (a.u.)
- GATAAGCCGACGTGTCACCTCTTCCCGCCCTCCGGCCTCCCGGAGTCACCTAGTGCAG — higher, 21300 fluorescence intensity (a.u.)
- TTTATGGAATTTTAACCCTGACATCCATCACTGAATTTGACGGAGTCACCTAGTGCAG — higher, 19200 fluorescence intensity (a.u.)
- ATGTAGAGTGAAACGGCCACTCCGCTTTCAGGCCGCACGTCGGAGTCACCTAGTGCAG — lower, 3670 fluorescence intensity (a.u.)
- GCGAGCTCCTGGAGGCGGCGAGGGCGCCGGAGTTCGCGGGCGGAGTCACCTAGTGCAG — higher, 37200 fluorescence intensity (a.u.)
- TAATGGAGACAAAGCTAGCGCGCGAGCACATGCACGTCACCGGAGTCACCTAGTGCAG — lower, 3830 fluorescence intensity (a.u.)
- TGATGGATAAATATGTGTTATATGACTCATTGAAATGTATCGGAGTCACCTAGTGCAG — lower, 6120 fluorescence intensity (a.u.)
- AAGAGAGACAGATTTAAACCAGCTCAGCCAATCCCCTCCCCGGAGTCACCTAGTGCAG — lower, 3840 fluorescence intensity (a.u.)
- AACTCTTGACAGCACCGACCATACGTGTACACAACCCATCCGGAGTCACCTAGTGCAG — higher, 10200 fluorescence intensity (a.u.)
- GGTATAGTGCCACGTGGCATCTGCCACTCCCGCCATCTCTCGGAGTCACCTAGTGCAG — higher, 32000 fluorescence intensity (a.u.)
- GGACAACTTCCTCCCCACCGTCCACGTCGACCTCCGCCAGCGGAGTCACCTAGTGCAG — higher, 11600 fluorescence intensity (a.u.)
- TGGAGGAGGAGGAGGGGAGACCACCGGAGGTAGGCGAATCCGGAGTCACCTAGTGCAG — lower, 3140 fluorescence intensity (a.u.)
- ATGATGATACGTATATATTGGGACTGCTCCATTCGTTTCACGGAGTCACCTAGTGCAG — lower, 3170 fluorescence intensity (a.u.)
- CCCTCCTCCTCGCCGCCGGCGCGGCGCGCGTGCAATGCAACGGAGTCACCTAGTGCAG — lower, 3620 fluorescence intensity (a.u.)
- CGCCGTCCGCCTCCTCCGTCAGCAGGTTCCTCACCGCGTGCGGAGTCACCTAGTGCAG — higher, 7020 fluorescence intensity (a.u.)
- TTCAAGTTGAAAACTTCCAACTCACCAATTGATTTTATTCCGGAGTCACCTAGTGCAG — lower, 3920 fluorescence intensity (a.u.)
- TATATACTGCACTTCTGCCCTATACACTGTATTTGTATTTCGGAGTCACCTAGTGCAG — lower, 3810 fluorescence intensity (a.u.)
- CATGATTAGCCATAAGTGCTACAGTAACCCACATGTGCTACGGAGTCACCTAGTGCAG — higher, 28300 fluorescence intensity (a.u.)
- AAATGTAGTTGTAAAATCCACAAAATAGTCTAGTCAGAAGCGGAGTCACCTAGTGCAG — lower, 3340 fluorescence intensity (a.u.)
- AATATGATGGTGCCATTGACGTTGGCGTTGTCACATTCACCGGAGTCACCTAGTGCAG — lower, 4410 fluorescence intensity (a.u.)
- TCGCACGCCAAATTCACACGTGACAGCTACCGTCTTCTCGCGGAGTCACCTAGTGCAG — lower, 3370 fluorescence intensity (a.u.)
- CAAGATGGGTCGGGTTGGGTGGGGTTACTCGCACTAGCACCGGAGTCACCTAGTGCAG — lower, 3160 fluorescence intensity (a.u.)
- AGCTGTTCGGTGGCGGGCGGATCCACCTCGGCCAGCCTCGCGGAGTCACCTAGTGCAG — lower, 3300 fluorescence intensity (a.u.)
- AAGAATTAAAGAAGCCTTTATAAGAAGAGAAGGCCAAGCTCGGAGTCACCTAGTGCAG — higher, 60800 fluorescence intensity (a.u.)
- GTTCTTCGTCGCCTCCATCCACATCGTCGTCGCCACCACCCGGAGTCACCTAGTGCAG — lower, 3450 fluorescence intensity (a.u.)
- ACAATTCAATGACATCTGATGGAGATGTGTTCCATATCAACGGAGTCACCTAGTGCAG — lower, 3520 fluorescence intensity (a.u.)
- GTAACAGAGTTTGCTGATTGTAAATTTGGTGGCGTGGCATCGGAGTCACCTAGTGCAG — lower, 4480 fluorescence intensity (a.u.)
- TCAGTTTCTTCAAGACCGTGACACATGCACTCCTTGACATCGGAGTCACCTAGTGCAG — lower, 4020 fluorescence intensity (a.u.)
- GGCTCTGACCTGTGCCTCGTCACCCACCTCGCCCGCCGCCCGGAGTCACCTAGTGCAG — higher, 13700 fluorescence intensity (a.u.)
- CATTCAACGCTCGCGTGCGTGCAGTGCCGTGTGTGGACCGCGGAGTCACCTAGTGCAG — higher, 54900 fluorescence intensity (a.u.)
- TTGTGACTTGATTTATCATCAAATGTTCTTTAAACATGACCGGAGTCACCTAGTGCAG — lower, 3540 fluorescence intensity (a.u.)
- TTAAGCCGCTTGATATGATGACTGGTAGCTCACTGGATCACGGAGTCACCTAGTGCAG — lower, 4620 fluorescence intensity (a.u.)
- TAGTCCTTCCACCACACGTATGCTACCTTATCAGATCCGACGGAGTCACCTAGTGCAG — lower, 5090 fluorescence intensity (a.u.)
